Laboratory results reported in doi:10.1101/2025.03.24.645063.
These are yes or no findings as the source states them, for the method shown. Some results given as binding are weak or reduced against the parent protein; the word gives no strength.

Chains of the proteins cited; added tags and fusions are not shown. Lines headed by an entry give the natural chain unless they say otherwise; changes in a name come on top.
UniProt Q96SW2: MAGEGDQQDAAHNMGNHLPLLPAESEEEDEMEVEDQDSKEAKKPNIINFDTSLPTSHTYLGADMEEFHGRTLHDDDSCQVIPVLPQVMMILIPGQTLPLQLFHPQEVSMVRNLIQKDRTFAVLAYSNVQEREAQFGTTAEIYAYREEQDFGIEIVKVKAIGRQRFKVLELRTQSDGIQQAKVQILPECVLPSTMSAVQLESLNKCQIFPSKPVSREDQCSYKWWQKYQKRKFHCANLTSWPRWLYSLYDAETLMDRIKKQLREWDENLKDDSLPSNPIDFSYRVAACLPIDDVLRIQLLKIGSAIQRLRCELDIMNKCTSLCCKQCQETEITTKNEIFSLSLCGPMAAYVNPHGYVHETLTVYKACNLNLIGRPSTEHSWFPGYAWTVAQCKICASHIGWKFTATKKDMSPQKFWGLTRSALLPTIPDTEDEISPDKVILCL
UniProt P15104: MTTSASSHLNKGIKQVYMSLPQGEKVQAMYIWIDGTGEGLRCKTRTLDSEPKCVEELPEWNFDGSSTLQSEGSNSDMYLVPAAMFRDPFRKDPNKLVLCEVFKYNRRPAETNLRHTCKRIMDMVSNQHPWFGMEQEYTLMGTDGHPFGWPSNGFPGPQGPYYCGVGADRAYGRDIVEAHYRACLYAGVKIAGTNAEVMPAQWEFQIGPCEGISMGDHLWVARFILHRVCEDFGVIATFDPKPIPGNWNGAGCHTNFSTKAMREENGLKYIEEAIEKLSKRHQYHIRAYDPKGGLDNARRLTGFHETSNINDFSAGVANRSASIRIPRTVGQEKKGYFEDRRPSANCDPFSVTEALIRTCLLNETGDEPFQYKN

Molecular target: CRBN/DDB1 complex (UniProt Q96SW2)
Test: FRET or BRET; TR-FRET association: 50 nM CoraFluor-1-labeled TBD or CRBN/DDB1, or 25 nM CoraFluor-1-labeled CRBNmidi; GFP protein titrated (1:2, 9-point, cmax 1 μM); 25 mM HEPES, 150 mM NaCl, 0.5 mg/mL BSA, 0.005% TWEEN 20, pH 7.5; background wells with 100 μM 5-NH2-lenalidomide; one-site specific binding fit; both purified

GFP-GLUL-cN (GFP-GLUL treated with PCMT1) (from UniProt P15104 1-373)
binding: binds
